Reference: paper PMC8138766
No constants are given. Whether binding was seen depends on the method and setting. For part of these data: Binding seen in cells or lysates may run through a third protein. Some results given as binding are weak or reduced against the parent protein; the word gives no strength. Tags and fused reporters may be left off the sequences shown.

Chains of the proteins cited; added tags and fusions are not shown. Lines headed by an entry give the natural chain unless they say otherwise; changes in a name come on top.
UniProt P52286: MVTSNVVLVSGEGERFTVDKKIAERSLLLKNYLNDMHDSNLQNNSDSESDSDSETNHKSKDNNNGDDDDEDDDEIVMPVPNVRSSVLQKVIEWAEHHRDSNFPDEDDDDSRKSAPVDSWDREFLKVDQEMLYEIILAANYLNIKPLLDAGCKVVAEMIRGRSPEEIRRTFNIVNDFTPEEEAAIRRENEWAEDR

T1: Rav2-FLAG (yeast) (UniProt Q03956)
T1 sequence: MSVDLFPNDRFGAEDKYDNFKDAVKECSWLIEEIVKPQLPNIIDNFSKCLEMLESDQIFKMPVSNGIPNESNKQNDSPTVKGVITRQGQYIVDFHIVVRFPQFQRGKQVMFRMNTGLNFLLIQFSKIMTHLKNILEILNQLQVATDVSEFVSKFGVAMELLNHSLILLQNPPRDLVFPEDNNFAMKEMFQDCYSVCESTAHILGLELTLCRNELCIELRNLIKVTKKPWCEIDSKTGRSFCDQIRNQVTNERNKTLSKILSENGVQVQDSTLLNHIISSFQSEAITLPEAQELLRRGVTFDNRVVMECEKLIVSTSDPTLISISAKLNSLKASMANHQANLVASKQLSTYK

B1: Rav1 (protein, UniProt P47104 1-1357)
chain: MSLNFLPGRPNATPQTACQATWQNHTIFAYCSGNNLIILTNKFTRLQTIYTQSDCTAVDINSQNGFIALSFHNRVLIYKPIHQIMQNPKWTQCCQLFHDDTPVNCLRWSSDNELAIGSDFLSFWKIKDNFGVYQPILQWNQKQPKPVYNVIISQDSQLIVSIGKYDCNAKLWKRVSIVGEQAIFNLTMLPHPKPITAMRWKKEPDQVSKNNTASHALYTLCEDKVLRIWSCFEMEKNHTVQIWGEVPLSPTQKFCVIIDNWIIRQTLSVKDSEIFDISDSDIVILGSMTGEMEVLALNNLSQDPPKPMTKKTISHKKVKKATMLNDTRYLYLPEIQPYDNVKGKLSFLVHDLQGVIRHLLIDILQLINNKTEDLSAALEHKFTGHNKSVQKLVRSSDGEALLTTSRFSENGVWYPQKLNHGVSLRLQNTIQTESPIKFAVVHELGKQVICLLENGALQAWECPTNRKEDSEQKQSYLRVETRLKEEKKIHPIVMLNTPEPKHSHERHFTALIFSDGSIKAFEVSLTRGIFEVKSDSLDIDGDDIYKISIIDPVHQTFVSNRPLISLITKKGLTRTYKAIVNYNDRHVQWIKACEINTGIMNCTCIRGSSTGKLCIVNSTGKVMSLWDLNRGVLEYEETFHNPIEDIDWTSTEYGQSIVSIGFTGYALLYTQLRYDYTNNTPSYLPIEKIDITAHTAHNIGDSVWMKNGTFVVASGNQFYIKDKSLDLTDPFTYQSIGSRKILSNDILHLSSVLNGPLPVYHPQFLIQAIYANKLQLVKELLLRLFLALRKLDFESQDVSNLDSNLGMDPLKYFIAKDRDYPVESFPDPYPCFNKTVSLALTEQLTKTTLPYLTRHQQITLITVIEAVDEVTKNENIVDYNGVRFLLGVKLFLSHKNIQKSILMRDVSWALHSDNKEILLSSIDRHITSWNRAREYRIAYWIKEQDLVKKFEDIAKYEFSKDDKRDPSRCAIFYLALKKKQILLSLWKMAIGHPEQQKMVRFISNDFTVPRWRTAALKNAFVLLSKHRYMDAAVFFLLTDSLKDCVNVLCKQVHDMDLAIGVCRVYEGDNGPVLGELLTAQMLPETIKENDRWKASFIYWKLRKQEVAIKALLTAPIDLENNSSIVDKEVCVNRSFLVEDPALLYLYNHLRNRNLKYFIGSLNVEAKIECTLILRVTDILCRMGCNYLAVSLVKNWKFIERNSIPVQKLLKSPTKDRAYSAIGAMASEPISTARMRPSLFDKFGSPSASDIESPNPKLPNSLLDDFLQPPPNSTSSNSLAQSSSSAPRSILDEFVSPSYSQHKENLTPKAPNDSVGETDNSENRKDKLSKDILDDLSSQKPQKPKKSAITKNLLDDFV
B2: maltose-binding protein (MBP)–tagged subunit C (protein, UniProt P31412 1-392)
chain: MATALYTANDFILISLPQNAQPVTAPGSKTDSWFNETLIGGRAFVSDFKIPEFKIGSLDTLIVESEELSKVDNQIGASIGKIIEILQGLNETSTNAYRTLPINNMPVPEYLENFQWQTRKFKLDKSIKDLITLISNESSQLDADVRATYANYNSAKTNLAAAERKKTGDLSVRSLHDIVKPEDFVLNSEHLTTVLVAVPKSLKSDFEKSYETLSKNVVPASASVIAEDAEYVLFNVHLFKKNVQEFTTAAREKKFIPREFNYSEELIDQLKKEHDSAASLEQSLRVQLVRLAKTAYVDVFINWFHIKALRVYVESVLRYGLPPHFNIKIIAVPPKNLSKCKSELIDAFGFLGGNAFMKDKKGKINKQDTSLHQYASLVDTEYEPFVMYIINL
B3: V1 subunit C (protein, UniProt P31412 1-392)
chain: B2 chain

Experiments:
Rav2-FLAG (yeast) = molecular target: T1, Rav2-FLAG (yeast); experiment: co-IP; anti-FLAG M2 affinity column on cleared lysate of galactose-induced yeast (bait Rav2-FLAG), PBS or TBSE pH 7.4, elution with FLAG peptide; Coomassie SDS-PAGE and immunoblots for V1 subunits A, B and C
[1] = molecular target: RAVE complex (Regulator of the H+-ATPase of Vacuoles and Endosomes), purified via Rav2-FLAG (yeast) (UniProt P47104+Q03956+P52286); experiment: pull-down; SEC fractions of RAVE–V1 or RAVE with a 1.5-fold excess of the MBP-tagged protein and anti-FLAG M2 beads, PBS with 0.5 mg/ml BSA, 1.5 h at 4 °C; elution with FLAG peptide; Western blot; both purified

Binder | binding (Rav2-FLAG (yeast)) | binding [1]
B1 | binds | 
B2 |  | binds weakly
B3 | binds weakly | 
